Library screen at single concentrations

Amino acid sequences for entries named in this document (tags omitted). Residues count along the entry.
UniProt A4I591, 1-473: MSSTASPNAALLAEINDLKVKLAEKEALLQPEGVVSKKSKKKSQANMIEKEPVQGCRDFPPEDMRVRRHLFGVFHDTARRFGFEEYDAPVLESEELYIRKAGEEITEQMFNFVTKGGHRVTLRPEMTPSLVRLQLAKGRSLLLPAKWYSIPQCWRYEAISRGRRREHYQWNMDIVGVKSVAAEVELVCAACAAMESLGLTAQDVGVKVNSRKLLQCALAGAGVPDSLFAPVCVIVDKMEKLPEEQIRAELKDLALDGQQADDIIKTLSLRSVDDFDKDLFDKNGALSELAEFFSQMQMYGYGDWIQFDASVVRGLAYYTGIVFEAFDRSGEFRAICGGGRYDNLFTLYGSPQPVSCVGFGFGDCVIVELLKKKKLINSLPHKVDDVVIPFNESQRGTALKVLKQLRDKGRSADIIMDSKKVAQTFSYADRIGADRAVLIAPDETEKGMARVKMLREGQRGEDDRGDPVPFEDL
UniProt Q8IDJ8, 1-583: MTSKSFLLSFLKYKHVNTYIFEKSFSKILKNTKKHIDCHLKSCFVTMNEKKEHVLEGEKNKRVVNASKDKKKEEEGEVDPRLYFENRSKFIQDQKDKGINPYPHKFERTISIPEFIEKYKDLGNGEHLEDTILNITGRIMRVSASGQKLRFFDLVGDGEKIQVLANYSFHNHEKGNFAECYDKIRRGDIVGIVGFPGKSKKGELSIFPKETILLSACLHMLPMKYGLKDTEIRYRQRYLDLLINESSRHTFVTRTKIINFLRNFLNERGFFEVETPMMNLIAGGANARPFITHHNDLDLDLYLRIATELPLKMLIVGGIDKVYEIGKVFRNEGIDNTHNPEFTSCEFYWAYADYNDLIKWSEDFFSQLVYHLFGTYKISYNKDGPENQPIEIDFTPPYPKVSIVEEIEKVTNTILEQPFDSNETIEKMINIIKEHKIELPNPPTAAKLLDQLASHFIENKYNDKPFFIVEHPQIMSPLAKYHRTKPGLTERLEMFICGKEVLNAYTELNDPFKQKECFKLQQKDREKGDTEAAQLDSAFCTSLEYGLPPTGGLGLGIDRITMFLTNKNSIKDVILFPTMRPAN

LiHisRS: 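Histidine-tRNA ligase, Leishmania infantum (UniProt A4I591). Enzyme assay of histidyl-tRNA synthetase; the read-out is not stated. Concentration: 30 µM. Direction is inferred from retests: higher values go with stronger inhibition. The assay is labelled LdHisRS but filed under L. infantum. Of about 69,000 compounds tested this way, about 410 (0.6%) reached 50% or more in at least one test.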
PfKRS1: 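Enzyme assay of the cytosolic lysyl-tRNA synthetase in 384-well plates, read by luminescence. Target: Lysine-tRNA ligase, Plasmodium falciparum 3D7 (UniProt Q8IDJ8). Tested at 30 µM. Direction is inferred from only a few compounds that gave an IC50; most scored high, so higher reads as stronger inhibition. About 69,000 compounds were tested under these conditions; 0.071% (about 49) showed 50% or more at least once.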

The filed quantity is “Percent Effect” (%). The record does not define 0% and 100%; most values in the screen are far below 50% and negative numbers occur (in some assays of this library far below -100). This is an unselected part of the compounds tested.

structure,LiHisRS,PfKRS1
Cc1nc(C(=O)N2CCOC(Cc3ccc(F)cc3)C2)co1 (stereo not shown),11.27,2.296
COc1cc(CNCCn2cc(C)cn2)c2c(c1)CC(C)O2 (stereo not shown),12.33,0.9111
Cc1ccc(C)c(S(=O)(=O)CCN2CCCC2Cn2cccn2)c1 (stereo not shown),22.83,1.333
CC(c1cccnc1)N1CCN(CCc2ccccn2)CC1 (stereo not shown),17.2,2.278
c1nc2c(c(NCCCn3cncn3)n1)CCN(CC1CCOC1)CC2 (stereo not shown),2.667,3.133
CCS(=O)(=O)N1CCC2(CC1)CC(CC(=O)NC1CC1)c1ccccc12 (stereo not shown),9.735,5.569
Cc1ncc2c(n1)CN(Cc1ncc(C(C)(C)C)o1)CC2,21.92,8.038
Cc1csc(CCCNC(=O)[C@H]2CNC[C@@H](C(=O)N3CCCC3)C2)n1,13.33,1.475
O=C1CC[C@]2(CC[C@@H](NC3CCOC3)CC2)N1Cc1ccccc1 (stereo partly shown),17.48,5.598
Cn1cc(NC(=O)c2cccc(-n3cnnn3)c2)cn1,12.36,2.62
N#Cc1cn(C2CC2)c(=O)n(Cc2cc(-c3cccs3)on2)c1=O,10.96,0.172
O=C(Nc1ccccn1)c1csc(NC2CCCC2)n1,28.09,6.637
Cc1sc2nc(CCN)nc(N3CCC(N4CCCC4)CC3)c2c1C,0,2.736
COc1ccnc(CN(C)C(=O)CSc2nnc(N)s2)c1,3.226,0.8742
COC(=O)c1ccoc1CN(C)CC(=O)NC1CCS(=O)(=O)C1 (stereo not shown),29.41,0.8653
CN(C)Cc1nc(C(C)(C)NC(=O)C2CC(=O)N(CC3CC3)C2)no1 (stereo not shown),0,-2.093
O=C(NCC(O)C1CC1)Nc1cnn(Cc2ccccc2)c1 (stereo not shown),11.71,9.574
COc1ccc(N2Cc3nc(=O)n(C(C)C)n3C2=O)cc1,18.42,0.6061
CCc1nnc(Sc2nn3cc(C)nc3s2)n1C,21.52,7.873
Cc1nc(CNC(C(=O)N2CCOCC2)C(C)C)oc1C (stereo not shown),-2.564,-0.8246
COC(=O)N1CCc2ccccc2C1C(=O)NCC(F)(F)F (stereo not shown),13.91,3.814
CCCS(=O)(=O)NCc1cccnc1OCC,0.9434,2.78
Cc1cc(CC(C)Nc2ncc(C)c(N(C)C)n2)[nH]n1 (stereo not shown),18.57,1.848
O=C(c1cccc2c1OCCO2)N1CCCC(n2ccnc2)C1 (stereo not shown),7.2,-0.5457
CCN1CCN(C2CCN(Cc3nc(CCOC)no3)CC2)C1=O,15.25,2.315
Cc1ccc(C)c(S(=O)(=O)NCCOc2ccc3nnc(C)n3n2)c1,26.83,-2.168
CC1COCCN1C(=O)c1cccc(OCc2cscn2)c1 (stereo not shown),0,0.3985
O=C(c1ccc(C2CCCN2)s1)N1CCN2CCC1CC2 (stereo not shown),1.042,0.2002
CCn1c(Nc2ccccc2OC)nc2c(C)nn(C)c2c1=O,9.709,0.3149
O=C(N[C@@H]1CN(Cc2ccc3c(c2)OCO3)[C@@H]2CCCO[C@@H]21)C1CC1,7.547,-1.471
O=C(CCc1ccco1)Nc1ncn(CC(=O)N2CCCCCC2)n1,17.24,4.334
CC(C)CN1C[C@@H]2CN(C(=O)[C@H]3CCCO3)C[C@@H]2C1=O,7.317,3.032
CNc1cc2c(nn1)CCN(C(=O)c1cc(C)no1)C2,7.965,0.7044
COc1ncccc1C(=O)N1CCCC1c1c(C)n[nH]c1C (stereo not shown),12.9,5.855
CS(=O)(=O)CCn1ccc(NC(=O)Cc2ccccc2F)n1,14.61,7.036
O=C1CC[C@H]2CN(Cc3cccnc3)CC[C@H]2N1CCc1c[nH]cn1,14.52,1.76
COc1ccc(OCc2cc(C(=O)N3CCN[C@H](C)C3)n[nH]2)c(Cl)c1,19.23,3.862
COCc1nc(CN(CC(N)=O)C(C)C)cs1,16.95,1.697
OCC1(NCc2cnc(-c3ccsc3)s2)CCOCC1,12.5,0.9703
Cc1cnn(C2CCCN(C(=O)c3cnc4ccccc4n3)C2)c1 (stereo not shown),35.71,8.188
O=C1CCCc2[nH]c(=O)c(C(=O)N3CCc4ccccc4C3)cc21,2.439,-2.124
Cc1nn(C)c(C)c1-c1cc(-c2cc(CC(=O)O)cs2)nc(N)c1C#N,12.9,3.034
Cc1n[nH]c(C2CN(CC(=O)NCCc3ccccc3C)CCO2)n1 (stereo not shown),17.28,0.9505
Cn1cccc1C(=O)N1CC[C@H]2[C@H](CO[C@H]2CNS(C)(=O)=O)C1,22.86,11.17
Cc1nc(N(C)C)nc(-c2cccc(-c3ccn(CCCO)n3)c2)c1C,4.762,-2.039
Cc1cc(Cl)ccc1C(=O)C1CCCN(Cc2cnc(N(C)C)s2)C1 (stereo not shown),13.33,4.436
CC1COC2(CCN(C(=O)Cc3ccncc3)CC2)C1 (stereo not shown),7.921,3.605
CCOC1COC2(CCN(Cc3ccc4c(c3)OCO4)CC2)C1 (stereo not shown),9.756,5.851
O=C(CC1=CCCCC1)NCc1ccnc(OC2CCOCC2)c1,14.91,4.812
O=C1[C@H]2CN(C3CCOCC3)C[C@H]2CN1Cc1cccc(F)c1,19.74,6.444
Cn1nc(COCC2CC2)c2c1CN(C(=O)c1ccno1)CC2,3.509,2.453
CS(=O)(=O)N1Cc2ccccc2C2(CCN(C(=O)c3ccno3)CC2)C1,24.39,-5.448
Cn1ccc(C(=O)N2CCc3[nH]nc(Nc4ccccc4)c3C2)n1,4.225,3.368
Cn1nnc(C2(NC(=O)c3ccccc3)CCCC2)n1,16.13,2.156
Cc1n[nH]c(C2CN(Cc3csc(C4CCCCC4)n3)CCO2)n1 (stereo not shown),8.219,7.855
CC(C)(C)c1cc(C(=O)NCCN2CCCS2(=O)=O)[nH]n1,12.84,2.722
CN(C)c1ccc(C(=O)N2CCCC(n3cncn3)C2)nn1 (stereo not shown),3.509,0.1378
O=C(NCCC(O)c1ccco1)c1ccccc1Br (stereo not shown),10.43,9.948
CC(C)n1cnnc1CN(C)CC1CCOC1 (stereo not shown),14.17,2.112
O=C(Cc1ccc2c(c1)CCO2)N1CCN(c2cnccn2)CC1,4,2.195
O=S(=O)(NCC(O)c1cccs1)c1ccccc1Cl (stereo not shown),15.65,0.3961
c1ccc(CN2CCc3ncnc(-c4cncnc4)c3CC2)nc1,8.824,-5.48
Cc1ccc(C2(O)CCN(C(=O)CCn3c(C)cccc3=O)CC2)nc1,31.76,0.8209
c1ccc2c(c1)CC(Cc1cc(N3CCCC3)cnn1)CO2 (stereo not shown),38.71,2.039
Cc1ccc(C(=O)NCCNC(=O)N(C)C(C)c2ccccn2)cc1 (stereo not shown),-129.3,2.704
CC(=O)N1Cc2ccccc2OC2(CCN(C(=O)C3CC3)CC2)C1,1.418,-0.9001
COc1ccc(C(=O)NCc2ccon2)cc1F,9.836,4.452

Measurements from “University of Dundee, Small-Polar-MMV Screening Library” (2021), ChEMBL document CHEMBL3988442.